# In US20110105733A1 (Ablynx, published 2011):
# By UniProt entry, the sequences of proteins in these tests, tags left out. Where a name states a change or a piece, a line headed by the entry shows the natural chain unless it says otherwise. Residues count along the entry.
# UniProt P46531, residues 19-526: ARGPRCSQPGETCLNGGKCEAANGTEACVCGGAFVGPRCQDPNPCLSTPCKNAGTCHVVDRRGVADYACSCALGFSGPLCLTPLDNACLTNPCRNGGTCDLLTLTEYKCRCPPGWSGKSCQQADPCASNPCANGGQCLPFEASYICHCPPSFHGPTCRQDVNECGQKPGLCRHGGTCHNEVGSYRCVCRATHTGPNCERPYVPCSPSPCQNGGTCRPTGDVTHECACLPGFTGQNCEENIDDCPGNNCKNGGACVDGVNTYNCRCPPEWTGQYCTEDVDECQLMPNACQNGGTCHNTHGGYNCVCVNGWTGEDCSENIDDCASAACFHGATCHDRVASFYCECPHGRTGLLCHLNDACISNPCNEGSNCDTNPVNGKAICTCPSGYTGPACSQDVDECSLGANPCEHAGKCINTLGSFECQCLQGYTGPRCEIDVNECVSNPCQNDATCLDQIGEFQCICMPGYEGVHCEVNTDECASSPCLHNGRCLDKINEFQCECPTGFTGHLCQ
# UniProt Q63722, residues 34-1067: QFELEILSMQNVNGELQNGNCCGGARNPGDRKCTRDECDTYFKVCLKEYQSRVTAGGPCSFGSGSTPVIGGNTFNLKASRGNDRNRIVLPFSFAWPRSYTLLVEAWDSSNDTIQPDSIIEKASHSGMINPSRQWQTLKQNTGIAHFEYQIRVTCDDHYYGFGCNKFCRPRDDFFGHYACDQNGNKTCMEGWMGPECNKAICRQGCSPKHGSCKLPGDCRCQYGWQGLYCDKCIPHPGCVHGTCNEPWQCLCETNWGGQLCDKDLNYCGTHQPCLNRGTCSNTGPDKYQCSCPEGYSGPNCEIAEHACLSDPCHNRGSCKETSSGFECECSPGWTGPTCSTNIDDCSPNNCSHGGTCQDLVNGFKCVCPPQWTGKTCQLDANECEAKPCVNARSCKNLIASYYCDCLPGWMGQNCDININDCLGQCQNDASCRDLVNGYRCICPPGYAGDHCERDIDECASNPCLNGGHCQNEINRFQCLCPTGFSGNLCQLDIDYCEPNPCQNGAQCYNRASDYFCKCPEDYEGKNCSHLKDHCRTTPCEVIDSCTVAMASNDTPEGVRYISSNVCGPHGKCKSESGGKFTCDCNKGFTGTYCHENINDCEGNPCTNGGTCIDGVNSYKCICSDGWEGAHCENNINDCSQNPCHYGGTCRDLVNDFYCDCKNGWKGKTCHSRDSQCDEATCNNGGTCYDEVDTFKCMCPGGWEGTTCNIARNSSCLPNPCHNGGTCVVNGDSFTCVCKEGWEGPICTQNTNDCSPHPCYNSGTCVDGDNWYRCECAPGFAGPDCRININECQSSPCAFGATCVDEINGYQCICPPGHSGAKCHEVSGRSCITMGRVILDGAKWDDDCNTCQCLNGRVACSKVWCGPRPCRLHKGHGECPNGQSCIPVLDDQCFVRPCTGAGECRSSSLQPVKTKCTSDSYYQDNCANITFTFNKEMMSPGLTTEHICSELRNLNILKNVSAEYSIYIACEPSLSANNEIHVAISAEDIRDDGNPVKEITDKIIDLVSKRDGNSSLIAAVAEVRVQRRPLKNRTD
# Changes are numbered by the printed parent chain. Results are given in words; binding and its absence hold for the method and conditions named. Some binding calls cover weakened binding; strength is not graded here.
# T1: human Notch-3 (human, UniProt Q9UM47 40-467, limits assumed)
# T1 construct: Construct not described
# T1 sequence (looked up): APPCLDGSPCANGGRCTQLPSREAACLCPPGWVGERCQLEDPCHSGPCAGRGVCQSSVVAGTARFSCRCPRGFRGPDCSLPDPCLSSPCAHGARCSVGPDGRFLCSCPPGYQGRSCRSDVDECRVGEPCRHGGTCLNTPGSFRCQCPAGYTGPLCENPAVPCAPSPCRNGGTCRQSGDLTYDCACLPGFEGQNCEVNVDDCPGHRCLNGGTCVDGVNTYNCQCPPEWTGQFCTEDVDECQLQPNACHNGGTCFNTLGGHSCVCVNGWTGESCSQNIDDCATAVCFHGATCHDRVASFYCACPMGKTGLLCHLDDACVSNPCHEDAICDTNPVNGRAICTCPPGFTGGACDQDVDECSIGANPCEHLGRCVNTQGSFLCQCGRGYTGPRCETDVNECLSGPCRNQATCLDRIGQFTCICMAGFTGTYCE
# B1: 180B1 (VHH)
# VHH: EVQLVESGGDLVQPGGSLRLSCAASGTVFSNNDMGWSRQAPGKERELVASFTSGGNTVYADAAKGRFTISRDNSKNTVYLEMNSLKPDDTAVYYCRVVDLLRGKLYWGQGTQVTVSS
# B2: 180C1 (VHH)
# VHH: B1 VHH with G26R, N31I, N32S, F51I, T52S, G54D, G55N, N56Y, L100P
# B3: 180F8 (VHH)
# VHH: B1 VHH with A23T, A24T, N31I, E44G, F51I, T52S, G54E, N56T, V58I, L100P
# notes: Nanobody against human Notch-1
# B4: 180F10 (VHH)
# VHH: B1 VHH with G26A, N32S, F51I, S53T, G54D, V58L, T68A, S70Y
# B5: 178C4 (VHH, not shown: small tags and cut ends)
# VHH: EVQLVESGGGLVQAGGSLRLSCAASGFTFDDYAIGWFRQAPGKEREGVSCMRGRDGSTYYADSVNGRFTISSDNAKNTVYLQMNSLKPEDTAVYYCAAHTDFACYIGYYSDYDPHDYWGQGTQVTVSS
# B6: 178A7 (VHH)
# VHH: EVQLVESGGGLVQPGGSLRLSCATSGVIFSTAAMGWYRQAPGKSRVLVARMFSDGRTIYAESVKRRFTISRDNAKNTVYLQMNSLEPEDTAVYYCNALQFGAVYWGQGTQVTVSS
# notes: Nanobody against rat Jagged-1; not shown: C-terminal c-myc tag and His6 tag coded by vector pAX50
# B7: 178C11 (VHH, not shown: small tags and cut ends)
# VHH: B6 VHH
# B8: 180B3 (VHH)
# VHH: B1 VHH
# B9: 50C4 (VHH)
# VHH: EVQLVESGGDLVQPGGSLRLSCAASGFTFSTYYMSWVRQAPGKGLEWVSGIYSDGSNTYYADSVKGRFTISRDNAKNTLYLQMNSLKSEDTAVYYCTRPVVVAGSPVSYEYDYIGQGTQVTVSS
# notes: Nanobody against human Notch-3
# B10: 50H9 (VHH)
# VHH: B9 VHH
# notes: as for B9
# B11: 180A4 (VHH)
# VHH: EVQLVESGGGLVQPGGSLRLSCAASGRTSSPIAMGWFRQAPGKEREFVSGITWSGAYTHYANSVKGRFTISRDSAKNTVYLQMNSLKPEDTAVYYCTTATNSTTGYDYWGQGTQVTVSS
# B12: 180F4 (VHH)
# VHH: EVQLVESGGGLVQAGDSLRLSCAVSGGSFSSYTMGWVRQAPGKEREAVASIWRSGGNTYYADSVKGRFTVSRDNAKHTVYLQMNSLKPEDTAVYYCAAASFAPGSRGYDYWGQGTQVTVSS
# Experiments:
# [1] = target: recombinant human Notch-1/Fc Chimera (R&D Systems Cat No 3647-TK) (human) (UniProt P46531); test: ELISA: human Notch-1/Fc coated at 2 ug/mL, Nanobody series, detection by mouse anti-Myc tag and DAMPO, OD 490 nm
# [2] = target: recombinant human Notch-1/Fc Chimera (R&D Systems Cat No 3647-TK) (human) (UniProt P46531); test: ELISA on immobilised human Notch-1, 25 pM to 2000 nM Nanobody, anti-VHH detection
# [3] = target: recombinant human Notch-1/Fc Chimera (R&D Systems Cat No 3647-TK) (human) (UniProt P46531); test: ELISA: human Notch-1 coated at 2 ug/mL, Nanobody series 25 pM-2000 nM, detection by rabbit anti-VHH and DAMPO, OD 490 nm
# [4] = target: rat Jagged-1 (rrJagged-1, R&D Systems Cat #599-JG) (rat) (UniProt Q63722); test: ELISA on coated rrJagged-1 (legend of FIG. 2)
# [5] = target: rat Jagged-1 (rrJagged-1, R&D Systems Cat #599-JG) (rat) (UniProt Q63722); test: ELISA: rat Jagged-1 (rrJagged-1) coated at 2 ug/mL, Nanobody series, detection by mouse anti-Myc tag and DAMPO, OD 490 nm
# [6] = target: rat Jagged-1 (rrJagged-1, R&D Systems Cat #599-JG) (rat) (UniProt Q63722); test: summary of the ELISA binding and competition assays
# [7] = target: rat Jagged-1 (rrJagged-1, R&D Systems Cat #599-JG) (rat) (UniProt Q63722); test: ELISA, 2 ug/ml rrJagged-1 coated, 1-1000 nM Nanobody, anti-myc detection
# [8] = target: biotinylated rrJagged-1 (rat) (UniProt Q63722); test: competition ELISA: rhNotch-1/hFc coated at 5 ug/mL, Nanobody series mixed with 0.3 ug/mL biotinylated rrJagged-1, detection by streptavidin-PO, OD 490 nm; blocked partner: Notch-1/hFc
# human Notch-3 [9] = target: T1, human Notch-3; test: ELISA: human Notch-3 coated at 2 ug/mL, Nanobody series 25 pM-2000 nM, detection by rabbit anti-VHH and DAMPO, OD 490 nm
# Method: After washing, the plate was blocked using 4% Marvel skimmed milk in PBS for 30 minutes on shaker. A concentration series of the Nanobodies in Table B-5 (25 pM to 2000 nM) was added in 100 microliter 2% Marvell/PBS and incubated for 1 h on shaker. After washing the Nanobodies were detected with 100 microliter 1:2500 R-anti-VHH (1:2500) in 2% Marvell/PBS and 100 microliter 1:5000 DAMPO in 2% Marvell/PBS for 1 h on shaker. PO was detected with 100 microliter OPD and stopped with 50 microliter H2SO4. Quantification was performed at 490 nm in a plate reader.
# human Notch-3 [10] = target: T1, human Notch-3; test: ELISA on immobilised human Notch-3, 25 pM to 2000 nM Nanobody, anti-VHH detection
binder,measurement,setting,value
B1,binding,[1],binds
B2,binding,[1],binds
B3,binding,[2],binds
same,binding,[1],binds
same,binding,[3],binds
B4,binding,[1],binds
B5,binding,[4],binds
same,binding,[5],binds
same,binding,[6],binds
same,binding,[7],binds
same,binding,[8],binds
B6,binding,[4],binds
same,binding,[5],binds
same,binding,[6],binds
same,binding,[7],binds
B7,binding,[4],binds
same,binding,[5],binds
same,binding,[6],binds
same,binding,[7],binds
B8,binding,[1],binds
B9,binding,human Notch-3 [9],binds
same,binding,human Notch-3 [10],binds
B10,binding,human Notch-3 [9],binds
same,binding,human Notch-3 [10],binds
B11,binding,[1],binds
B12,binding,[1],binds
